Measurements reported in PubChem BioAssay AID1508597 (Cure First, 2020)

Aim: 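Knock-downs altering ovarian cancer cell survival with or without PARP inhibitor rucaparib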 (primary screen)
System: human ovarian carcinoma lines grown from tumours: OCI-P5x (papillary serous) and OCI-C5x (clear cell)
Reagent: siRNA pool against human genes, 1.25 pmol siRNA per well
Timing: 72 h or 96 h, depending on the cell culture
Conditions: rucaparib 20 µM (about IC30) or vehicle, present until read-out
Measured: 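Luminescent ATP-based viability assay read 72 or 96 h after transfection, depending on culture, given as normalised percent viability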
Reading the numbers: viability, normalised: higher = more viable cells remaining
Rule for the call: 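Active when normalised viability falls below 80 percent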
Meaning of the calls: active = viability under 80%; inactive = viability 80% or more
In all, the deposit lists about 2,100 reagents; shown is a random part of them. 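Calls flag viability under 80% in either arm, not effects specific to rucaparib; the reference for percent is not stated.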 The record does not give: the 100% reference.

With EIF5A2 (GeneID 56648), rucaparib or vehicle Rucaparib, cell line OCI-C5x (clear cell), technical replicate 1, what was measured?
viability, normalised (%): 54.8; outcome: active

What did the screen give for EIF5A2 (GeneID 56648), rucaparib or vehicle Rucaparib, cell line OCI-C5x (clear cell), technical replicate 2?
viability, normalised (%): 69.9; outcome: active

How did the screen score EIF5A2 (GeneID 56648), rucaparib or vehicle Rucaparib, cell line OCI-C5x (clear cell), technical replicate 3?
viability, normalised (%): 74.2; outcome: active

What did the screen give for EIF5A2 (GeneID 56648), rucaparib or vehicle Rucaparib, cell line OCI-P5x (serous), technical replicate 1?
viability, normalised (%): 62.5; outcome: active

For EIF5A2 (GeneID 56648), rucaparib or vehicle Rucaparib, cell line OCI-P5x (serous), technical replicate 2, what was measured?
viability, normalised (%): 56.4; outcome: active

With EIF5A2 (GeneID 56648), rucaparib or vehicle Rucaparib, cell line OCI-P5x (serous), technical replicate 3, what was measured?
viability, normalised (%): 79.3; outcome: active

With EIF5A2 (GeneID 56648), rucaparib or vehicle Vehicle, cell line OCI-C5x (clear cell), technical replicate 1, what was measured?
viability, normalised (%): 77.9; outcome: active

How did the screen score EIF5A2 (GeneID 56648), rucaparib or vehicle Vehicle, cell line OCI-C5x (clear cell), technical replicate 2?
viability, normalised (%): 83.9; outcome: inactive

How did the screen score EIF5A2 (GeneID 56648), rucaparib or vehicle Vehicle, cell line OCI-C5x (clear cell), technical replicate 3?
viability, normalised (%): 69.9; outcome: active

How did the screen score EIF5A2 (GeneID 56648), rucaparib or vehicle Vehicle, cell line OCI-P5x (serous), technical replicate 1?
viability, normalised (%): 62.7; outcome: active

How did the screen score EIF5A2 (GeneID 56648), rucaparib or vehicle Vehicle, cell line OCI-P5x (serous), technical replicate 2?
viability, normalised (%): 52.7; outcome: active

What is on record for EIF5A2 (GeneID 56648), rucaparib or vehicle Vehicle, cell line OCI-P5x (serous), technical replicate 3?
viability, normalised (%): 60.5; outcome: active

A stretch from the list above, as a working copy:
EIF5A2 (GeneID 56648), rucaparib or vehicle Rucaparib, cell line OCI-C5x (clear cell), technical replicate 3 | viability, normalised (%): 74.2; outcome: active
EIF5A2 (GeneID 56648), rucaparib or vehicle Rucaparib, cell line OCI-P5x (serous), technical replicate 1 | viability, normalised (%): 62.5; outcome: active
EIF5A2 (GeneID 56648), rucaparib or vehicle Rucaparib, cell line OCI-P5x (serous), technical replicate 2 | viability, normalised (%): 56.4; outcome: active
EIF5A2 (GeneID 56648), rucaparib or vehicle Rucaparib, cell line OCI-P5x (serous), technical replicate 3 | viability, normalised (%): 79.3; outcome: active
EIF5A2 (GeneID 56648), rucaparib or vehicle Vehicle, cell line OCI-C5x (clear cell), technical replicate 1 | viability, normalised (%): 77.9; outcome: active

The listing continues.
What did the screen give for CAV2 (GeneID 858), rucaparib or vehicle Rucaparib, cell line OCI-C5x (clear cell), technical replicate 1?
viability, normalised (%): 40; outcome: active

For CAV2 (GeneID 858), rucaparib or vehicle Rucaparib, cell line OCI-C5x (clear cell), technical replicate 2, what was measured?
viability, normalised (%): 31.6; outcome: active

How did the screen score CAV2 (GeneID 858), rucaparib or vehicle Rucaparib, cell line OCI-C5x (clear cell), technical replicate 3?
viability, normalised (%): 39.1; outcome: active

What is on record for CAV2 (GeneID 858), rucaparib or vehicle Rucaparib, cell line OCI-P5x (serous), technical replicate 1?
viability, normalised (%): 82; outcome: inactive

With CAV2 (GeneID 858), rucaparib or vehicle Rucaparib, cell line OCI-P5x (serous), technical replicate 2, how do the results read?
viability, normalised (%): 79.5; outcome: active

Which result is listed for CAV2 (GeneID 858), rucaparib or vehicle Rucaparib, cell line OCI-P5x (serous), technical replicate 3?
viability, normalised (%): 72.4; outcome: active

With CAV2 (GeneID 858), rucaparib or vehicle Vehicle, cell line OCI-C5x (clear cell), technical replicate 1, what does the deposit list?
viability, normalised (%): 33.7; outcome: active

What did the screen give for CAV2 (GeneID 858), rucaparib or vehicle Vehicle, cell line OCI-C5x (clear cell), technical replicate 2?
viability, normalised (%): 38.4; outcome: active

For CAV2 (GeneID 858), rucaparib or vehicle Vehicle, cell line OCI-C5x (clear cell), technical replicate 3, how do the results read?
viability, normalised (%): 41.9; outcome: active

What is on record for CAV2 (GeneID 858), rucaparib or vehicle Vehicle, cell line OCI-P5x (serous), technical replicate 1?
viability, normalised (%): 68.2; outcome: active

For CAV2 (GeneID 858), rucaparib or vehicle Vehicle, cell line OCI-P5x (serous), technical replicate 2, how do the results read?
viability, normalised (%): 68.9; outcome: active

Which result is listed for CAV2 (GeneID 858), rucaparib or vehicle Vehicle, cell line OCI-P5x (serous), technical replicate 3?
viability, normalised (%): 97.8; outcome: inactive

With PTK7 (GeneID 5754), rucaparib or vehicle Rucaparib, cell line OCI-C5x (clear cell), technical replicate 1, what does the deposit list?
viability, normalised (%): 47.1; outcome: active

With PTK7 (GeneID 5754), rucaparib or vehicle Rucaparib, cell line OCI-C5x (clear cell), technical replicate 2, what was measured?
viability, normalised (%): 36.1; outcome: active

For PTK7 (GeneID 5754), rucaparib or vehicle Rucaparib, cell line OCI-C5x (clear cell), technical replicate 3, how do the results read?
viability, normalised (%): 46.3; outcome: active

What did the screen give for PTK7 (GeneID 5754), rucaparib or vehicle Rucaparib, cell line OCI-P5x (serous), technical replicate 1?
viability, normalised (%): 46.7; outcome: active

With PTK7 (GeneID 5754), rucaparib or vehicle Rucaparib, cell line OCI-P5x (serous), technical replicate 2, what was measured?
viability, normalised (%): 44.9; outcome: active

With PTK7 (GeneID 5754), rucaparib or vehicle Rucaparib, cell line OCI-P5x (serous), technical replicate 3, how do the results read?
viability, normalised (%): 64.9; outcome: active

How did the screen score PTK7 (GeneID 5754), rucaparib or vehicle Vehicle, cell line OCI-C5x (clear cell), technical replicate 1?
viability, normalised (%): 42.1; outcome: active

For PTK7 (GeneID 5754), rucaparib or vehicle Vehicle, cell line OCI-C5x (clear cell), technical replicate 2, what was measured?
viability, normalised (%): 47.4; outcome: active

What is on record for PTK7 (GeneID 5754), rucaparib or vehicle Vehicle, cell line OCI-C5x (clear cell), technical replicate 3?
viability, normalised (%): 58.7; outcome: active

With PTK7 (GeneID 5754), rucaparib or vehicle Vehicle, cell line OCI-P5x (serous), technical replicate 1, what was measured?
viability, normalised (%): 59; outcome: active

With PTK7 (GeneID 5754), rucaparib or vehicle Vehicle, cell line OCI-P5x (serous), technical replicate 2, how do the results read?
viability, normalised (%): 65.7; outcome: active

What is on record for PTK7 (GeneID 5754), rucaparib or vehicle Vehicle, cell line OCI-P5x (serous), technical replicate 3?
viability, normalised (%): 81; outcome: inactive
